This is an account of results in US20030186847A1 (priority 2000, published 2003).

This data set is described as follows: general procedure: peptide synthesis; DCC/HOBt; active esters with NMM in DMF. The note with it: conjugation step; for final HPLC purity: RP-HPLC.

As for “B1-L-thyroxyl-(12-aminolauryl)-insulin (Human)”, the conjugation yield is given as 27.3% of theory and the “final HPLC purity” value is given as 97.6%.

As for “B1-[D-thyroxyl-(12-aminolauryl)]-insulin (Human)”, the conjugation yield is 25% of theory and the “final HPLC purity” value is listed as 98%.

“B1-((N-acetyl-L-thyroxyl)-(12-aminolauryl))-insulin (Human)”: the conjugation yield is reported as 21% of theory and the “final HPLC purity” value turned out to be 98.2%.
